{"sequences": {"note": "Amino acid sequences for entries named in this document (tags omitted).", "UniProt P54252": "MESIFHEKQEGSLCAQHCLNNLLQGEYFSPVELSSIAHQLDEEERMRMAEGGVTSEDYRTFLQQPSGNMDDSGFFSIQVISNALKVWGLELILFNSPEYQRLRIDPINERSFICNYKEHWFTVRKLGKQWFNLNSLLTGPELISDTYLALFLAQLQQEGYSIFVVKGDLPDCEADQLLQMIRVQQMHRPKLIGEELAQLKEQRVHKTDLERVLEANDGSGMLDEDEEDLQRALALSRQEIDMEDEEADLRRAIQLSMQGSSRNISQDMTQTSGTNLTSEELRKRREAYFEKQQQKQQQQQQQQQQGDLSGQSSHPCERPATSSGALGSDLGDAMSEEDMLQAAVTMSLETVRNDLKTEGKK"}, "source": "paper PMC6599078", "target": "T1, TSPAN8 (immunoprecipitated for mass spectrometry and for the co-immunoprecipitation with ATXN3) (UniProt P19075)", "T1 sequence": "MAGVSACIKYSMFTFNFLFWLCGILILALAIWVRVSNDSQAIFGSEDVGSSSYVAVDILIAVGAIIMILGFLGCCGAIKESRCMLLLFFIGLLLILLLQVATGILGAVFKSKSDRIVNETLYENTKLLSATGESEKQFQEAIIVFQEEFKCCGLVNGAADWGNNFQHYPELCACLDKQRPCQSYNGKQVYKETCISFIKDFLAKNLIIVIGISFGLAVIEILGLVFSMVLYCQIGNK", "test": "affinity purification with mass spectrometry; mass spectrometry analyses of immunoprecipitated TSPAN8", "note": "Results are given in words; binding and its absence hold for the method and conditions named. In cells and extracts the contact can be indirect. Here binding means that the protein was enriched with, or labelled near, the bait; the list need not be complete.", "data": [{"substance": "ATXN3 (found with immunoprecipitated TSPAN8) (from UniProt P54252 1-361) (enzyme)", "values": [{"measurement": "binding", "result": "binds"}]}]}
